For one substance, binding results are on record in article PMC10353116.

The chains behind the UniProt entries cited, without tags or fusion partners. Residues count along the entry.
UniProt Q9H6L5: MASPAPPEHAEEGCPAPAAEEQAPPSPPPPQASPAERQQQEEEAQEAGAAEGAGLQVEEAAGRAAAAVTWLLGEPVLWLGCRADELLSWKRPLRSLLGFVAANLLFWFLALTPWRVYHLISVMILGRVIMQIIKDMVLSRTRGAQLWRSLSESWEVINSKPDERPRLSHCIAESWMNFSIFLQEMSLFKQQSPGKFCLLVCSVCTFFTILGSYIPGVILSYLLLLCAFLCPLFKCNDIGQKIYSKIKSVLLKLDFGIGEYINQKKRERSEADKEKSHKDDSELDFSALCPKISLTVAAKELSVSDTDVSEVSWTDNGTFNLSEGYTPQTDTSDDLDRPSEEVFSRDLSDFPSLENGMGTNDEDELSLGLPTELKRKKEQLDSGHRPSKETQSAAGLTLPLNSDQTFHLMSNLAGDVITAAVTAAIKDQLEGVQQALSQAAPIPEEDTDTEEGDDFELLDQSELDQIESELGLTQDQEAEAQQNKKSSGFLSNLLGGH
UniProt P36888, residues 27-993: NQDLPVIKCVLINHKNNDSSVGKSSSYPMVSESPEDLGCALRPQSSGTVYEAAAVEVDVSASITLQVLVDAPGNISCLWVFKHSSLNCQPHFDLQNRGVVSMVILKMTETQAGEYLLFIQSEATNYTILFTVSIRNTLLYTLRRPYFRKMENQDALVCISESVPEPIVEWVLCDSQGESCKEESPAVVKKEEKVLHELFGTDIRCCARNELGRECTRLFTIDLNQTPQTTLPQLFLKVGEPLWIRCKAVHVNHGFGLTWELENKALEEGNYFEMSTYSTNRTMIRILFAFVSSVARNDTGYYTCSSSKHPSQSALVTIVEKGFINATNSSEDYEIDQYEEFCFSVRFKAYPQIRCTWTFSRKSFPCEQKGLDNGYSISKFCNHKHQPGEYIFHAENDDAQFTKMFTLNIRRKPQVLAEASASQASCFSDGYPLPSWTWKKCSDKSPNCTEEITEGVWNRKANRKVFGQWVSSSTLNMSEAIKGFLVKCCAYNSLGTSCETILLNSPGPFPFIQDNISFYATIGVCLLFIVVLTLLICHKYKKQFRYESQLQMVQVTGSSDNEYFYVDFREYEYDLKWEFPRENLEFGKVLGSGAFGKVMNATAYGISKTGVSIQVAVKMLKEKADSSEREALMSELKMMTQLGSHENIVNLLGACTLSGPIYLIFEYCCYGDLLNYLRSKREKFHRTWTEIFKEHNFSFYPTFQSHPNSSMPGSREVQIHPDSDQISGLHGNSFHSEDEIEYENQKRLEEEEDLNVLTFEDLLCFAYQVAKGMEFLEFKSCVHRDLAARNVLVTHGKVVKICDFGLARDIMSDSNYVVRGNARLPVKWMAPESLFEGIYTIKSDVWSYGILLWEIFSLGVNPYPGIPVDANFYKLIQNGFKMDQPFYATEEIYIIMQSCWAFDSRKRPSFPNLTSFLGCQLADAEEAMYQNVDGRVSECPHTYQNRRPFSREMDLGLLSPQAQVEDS

The assay addresses Family with sequence similarity 134 member B (FAM134B) (human) (UniProt Q9H6L5). As to the kind of experiment: co-IP; co-immunoprecipitation of FAM134B and FLT3; cells, antibodies and direction not stated.

Results are given in words; binding and its absence hold for the method and conditions named. Binding seen in cells or lysates may run through a third protein. Some binding calls cover weakened binding; strength is not graded here.

On to “FMS related receptor tyrosine kinase 3 (FLT3) (from UniProt P36888 27-993)”, for which the binding entry was “binds”.
